Data as given in PubChem BioAssay AID1259405 (NCATS, 2018)
Test: 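Silenced genes that increase secreted GFP made by CHO cells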 (primary screen). System: Chinese hamster CHO-K1 ovary cells with stable secreted eGFP expression. Reagents: single siRNA against mouse genes, 0.8 pmol siRNA per well (2 µl of 400 nM stock). Time to read-out: 3 days. Measured: 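Per-well intracellular GFP measured by laser scanning cytometry, plus viability from ATP luminescence, each relative to plate median of non-targeting control wells, in %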. Reading the numbers: GFP, % of control: higher = more GFP per well, higher productivity; viability (ATP), % of control: higher = more viable cells (more ATP). Active means: 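Called active when intracellular GFP, relative to negative control, is at or above 120%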.
The deposit covers about 50,000 reagents; below is a part drawn at random. In the full data, about 4,000 (8%) were called active. 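Mouse siRNA library applied to hamster cells; one well for each siRNA.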 Unmarked entries are inactive. Reagents against one gene are numbered here.

| gene | siRNA no. | GFP, % of control | viability (ATP), % of control |
| --- | --- | --- | --- |
| Dach2 (dachshund family transcription factor 2) | 1 | 72.6 | 67.8 |
| Dach2 (dachshund family transcription factor 2) | 2 | 86.1 | 63.2 |
| Soat2 (sterol O-acyltransferase 2) | 1 | 82 | 82.6 |
| Soat2 (sterol O-acyltransferase 2) | 2 | 112 | 122 |
| Soat2 (sterol O-acyltransferase 2) | 3 | 47.8 | 77.1 |
| Slc12a7 | 1 | 82.2 | 94.7 |
| Slc12a7 | 2 | 69.2 | 47.1 |
| Slc12a7 | 3 | 81.4 | 78.3 |
| Or14a258 (olfactory receptor family 14 subfamily A member 258) | 1 | 85 | 62.2 |
| Or14a258 (olfactory receptor family 14 subfamily A member 258) | 2 | 71.8 | 56.9 |
| Or14a258 (olfactory receptor family 14 subfamily A member 258) | 3 | 113 | 74.6 |
| Patz1 (POZ (BTB) and AT hook containing zinc finger 1) | 1 | 43.4 | 58.1 |
| Patz1 (POZ (BTB) and AT hook containing zinc finger 1) | 2 | 82.6 | 87.1 |
| Patz1 (POZ (BTB) and AT hook containing zinc finger 1) | 3 | 61.2 | 78.7 |
| Lhx2 (LIM homeobox protein 2) | 1 | 59 | 44.1 |
| Lhx2 (LIM homeobox protein 2) | 2 | 133 (active) | 94.9 |
| Lhx2 (LIM homeobox protein 2) | 3 | 69.7 | 77.7 |
| Rps6kb2 (ribosomal protein S6 kinase B2) | 1 | 97.1 | 57.6 |
| Rps6kb2 (ribosomal protein S6 kinase B2) | 2 | 103 | 74.4 |
| Rps6kb2 (ribosomal protein S6 kinase B2) | 3 | 109 | 72.9 |
| Psmc6 (proteasome (prosome, macropain) 26S subunit, ATPase, 6) | 1 | 51.4 | 18.5 |
| Psmc6 (proteasome (prosome, macropain) 26S subunit, ATPase, 6) | 2 | 51.7 | 30.3 |
| Psmc6 (proteasome (prosome, macropain) 26S subunit, ATPase, 6) | 3 | 48.2 | 24 |
| Mpzl1 (myelin protein zero-like 1) | 1 | 76.3 | 83.1 |
| Mpzl1 (myelin protein zero-like 1) | 2 | 87.2 | 83.7 |
| Elavl3 (ELAV like RNA binding protein 3) | 1 | 123 (active) | 91.5 |
| Elavl3 (ELAV like RNA binding protein 3) | 2 | 79.7 | 80.1 |
| Elavl3 (ELAV like RNA binding protein 3) | 3 | 83.2 | 77.7 |
| Papln (papilin, proteoglycan-like sulfated glycoprotein) | 1 | 26.5 | 31.2 |
| Papln (papilin, proteoglycan-like sulfated glycoprotein) | 2 | 87.7 | 81.4 |
| Papln (papilin, proteoglycan-like sulfated glycoprotein) | 3 | 88.2 | 102 |
| Ttc39c (tetratricopeptide repeat domain 39C) | 1 | 64.5 | 52.7 |
| Ttc39c (tetratricopeptide repeat domain 39C) | 2 | 83.1 | 50.7 |
| Ttc39c (tetratricopeptide repeat domain 39C) | 3 | 89.9 | 63.3 |
| Ifngr1 (interferon gamma receptor 1) | 1 | 80.1 | 87.4 |
| Ifngr1 (interferon gamma receptor 1) | 2 | 71.3 | 77 |
| Ifngr1 (interferon gamma receptor 1) | 3 | 89.9 | 72.6 |
| Antxr2 (anthrax toxin receptor 2) | 1 | 69.5 | 66 |
| Antxr2 (anthrax toxin receptor 2) | 2 | 80.9 | 66 |
| Antxr2 (anthrax toxin receptor 2) | 3 | 70.8 | 76.7 |
| Pcdhgb1 (protocadherin gamma subfamily B, 1) | 1 | 99.9 | 77.3 |
| Pcdhgb1 (protocadherin gamma subfamily B, 1) | 2 | 63.3 | 50.1 |
| Pcdhgb1 (protocadherin gamma subfamily B, 1) | 3 | 104 | 64.8 |
| Cpxm2 (carboxypeptidase X, M14 family member 2) | 1 | 95.8 | 104 |
| Cpxm2 (carboxypeptidase X, M14 family member 2) | 2 | 42.8 | 38.7 |
| Cpxm2 (carboxypeptidase X, M14 family member 2) | 3 | 59.5 | 68.6 |
| Zswim6 (zinc finger SWIM-type containing 6) | 1 | 66.2 | 65.3 |
| Zswim6 (zinc finger SWIM-type containing 6) | 2 | 88.1 | 50.3 |
| Zswim6 (zinc finger SWIM-type containing 6) | 3 | 96.9 | 84.4 |
| Mmp27 (matrix metallopeptidase 27) | 1 | 68.5 | 66.9 |
| Mmp27 (matrix metallopeptidase 27) | 2 | 46.5 | 57 |
| Mgat4f (MGAT4 family, member F) | 1 | 63.2 | 100 |
| Mgat4f (MGAT4 family, member F) | 2 | 64.3 | 77.7 |
| Mgat4f (MGAT4 family, member F) | 3 | 66.2 | 85.9 |
| Lcn12 (lipocalin 12) | 1 | 92 | 74 |
| Lcn12 (lipocalin 12) | 2 | 38.8 | 29.8 |
| Lcn12 (lipocalin 12) | 3 | 104 | 62.5 |
| Kif21b (kinesin family member 21B) | 1 | 53.5 | 59.9 |
| Kif21b (kinesin family member 21B) | 2 | 111 | 97 |
| Kif21b (kinesin family member 21B) | 3 | 114 | 79.9 |
| Hgs (HGF-regulated tyrosine kinase substrate) | 1 | 134 (active) | 79.8 |
| Hgs (HGF-regulated tyrosine kinase substrate) | 2 | 59.8 | 49.4 |
| Aig1 (androgen-induced 1) | 1 | 50 | 57.5 |
| Aig1 (androgen-induced 1) | 2 | 50.9 | 65.4 |
| Aig1 (androgen-induced 1) | 3 | 92.9 | 86.9 |
| Ano1 (anoctamin 1, calcium activated chloride channel) | 1 | 34.2 | 28.8 |
| Ano1 (anoctamin 1, calcium activated chloride channel) | 2 | 72.4 | 94.1 |
| Ano1 (anoctamin 1, calcium activated chloride channel) | 3 | 93.8 | 82.9 |
| Clec9a (C-type lectin domain family 9, member a) | 1 | 81.6 | 69 |
| Clec9a (C-type lectin domain family 9, member a) | 2 | 62.6 | 81.8 |
| Clec9a (C-type lectin domain family 9, member a) | 3 | 73.2 | 78.2 |
| Megf11 (multiple EGF-like-domains 11) | 1 | 13.8 | 21.1 |
| Megf11 (multiple EGF-like-domains 11) | 2 | 47.3 | 69.7 |
| Megf11 (multiple EGF-like-domains 11) | 3 | 18.8 | 62.3 |
| Or8g52 (olfactory receptor family 8 subfamily G member 52) | 1 | 66.8 | 86.6 |
| Or8g52 (olfactory receptor family 8 subfamily G member 52) | 2 | 77.5 | 50.8 |
| Or8g52 (olfactory receptor family 8 subfamily G member 52) | 3 | 56.1 | 63.9 |
| Zbtb12 (zinc finger and BTB domain containing 12) | 1 | 88.6 | 69.1 |
| Zbtb12 (zinc finger and BTB domain containing 12) | 2 | 61.2 | 55.9 |
| Zfp7 (zinc finger protein 7) | 1 | 60.3 | 61.5 |
| Zfp7 (zinc finger protein 7) | 2 | 39.3 | 52 |
| Pdha1 (pyruvate dehydrogenase E1 alpha 1) | 1 | 62.1 | 91.3 |
| Pdha1 (pyruvate dehydrogenase E1 alpha 1) | 2 | 52.5 | 91 |
| Pdha1 (pyruvate dehydrogenase E1 alpha 1) | 3 | 96.9 | 121 |
